In PMC7815719 one finds binding data, which are given here for two molecules.

The chains behind the UniProt entries cited, without tags or fusion partners. Residues count along the entry.
UniProt P01375, residues 77-233: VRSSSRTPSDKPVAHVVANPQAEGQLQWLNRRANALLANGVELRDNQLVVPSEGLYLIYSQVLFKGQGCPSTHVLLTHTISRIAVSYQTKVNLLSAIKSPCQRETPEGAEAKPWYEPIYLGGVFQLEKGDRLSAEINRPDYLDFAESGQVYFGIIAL

These are yes or no findings as the source states them, for the method shown. Binding seen in cells or lysates may run through a third protein. Some binding calls cover weakened binding; strength is not graded here.

For the assay, the target named is GST-hTNF (residues 77-233) (human) (UniProt P01375). The assay can be described thus: pull-down; WT and MIB2 KO HeLa cells (similar in HCT116) stimulated with GST-TNF (1 μg/ml), with or without BV6 (0.1 μM); lysed in IP buffer; TNFR-containing complex I precipitated with glutathione-Sepharose overnight at 4 °C; immunoblot; only the target purified. On the technique in general: Immunoblotting shows a protein as a band on a membrane.

B1: endogenous TAK1 (enzyme, UniProt O43318 1-606)
chain: MSTASAASSSSSSSAGEMIEAPSQVLNFEEIDYKEIEVEEVVGRGAFGVVCKAKWRAKDVAIKQIESESERKAFIVELRQLSRVNHPNIVKLYGACLNPVCLVMEYAEGGSLYNVLHGAEPLPYYTAAHAMSWCLQCSQGVAYLHSMQPKALIHRDLKPPNLLLVAGGTVLKICDFGTACDIQTHMTNNKGSAAWMAPEVFEGSNYSEKCDVFSWGIILWEVITRRKPFDEIGGPAFRIMWAVHNGTRPPLIKNLPKPIESLMTRCWSKDPSQRPSMEEIVKIMTHLMRYFPGADEPLQYPCQYSDEGQSNSATSTGSFMDIASTNTSNKSDTNMEQVPATNDTIKRLESKLLKNQAKQQSESGRLSLGASRGSSVESLPPTSEGKRMSADMSEIEARIAATTAYSKPKRGHRKTASFGNILDVPEIVISGNGQPRRRSIQDLTVTGTEPGQVSSRSSSPSVRMITTSGPTSEKPTRSHPWTPDDSTDTNGSDNSIPMAYLTLDHQLQPLAPCPNSKESMAVFEQHCKMAQEYMKVQTEIALLLQRKQELVAELDQDEKDQQNTSRLVQEHKKLLDENKSLSTYYQQCKKQLEVIRSQQQKRQGTS
For B1, the binding entry is reported as “binds”.

B2: endogenous TBK1 (enzyme, UniProt Q9UHD2 1-729)
chain: MQSTSNHLWLLSDILGQGATANVFRGRHKKTGDLFAIKVFNNISFLRPVDVQMREFEVLKKLNHKNIVKLFAIEEETTTRHKVLIMEFCPCGSLYTVLEEPSNAYGLPESEFLIVLRDVVGGMNHLRENGIVHRDIKPGNIMRVIGEDGQSVYKLTDFGAARELEDDEQFVSLYGTEEYLHPDMYERAVLRKDHQKKYGATVDLWSIGVTFYHAATGSLPFRPFEGPRRNKEVMYKIITGKPSGAISGVQKAENGPIDWSGDMPVSCSLSRGLQVLLTPVLANILEADQEKCWGFDQFFAETSDILHRMVIHVFSLQQMTAHKIYIHSYNTATIFHELVYKQTKIISSNQELIYEGRRLVLEPGRLAQHFPKTTEENPIFVVSREPLNTIGLIYEKISLPKVHPRYDLDGDASMAKAITGVVCYACRIASTLLLYQELMRKGIRWLIELIKDDYNETVHKKTEVVITLDFCIRNIEKTVKVYEKLMKINLEAAELGEISDIHTKLLRLSSSQGTIETSLQDIDSRLSPGGSLADAWAHQEGTHPKDRNVEKLQVLLNCMTEIYYQFKKDKAERRLAYNEEQIHKFDKQKLYYHATKAMTHFTDECVKKYEAFLNKSEEWIRKMLHLRKQLLSLTNQCFDIEEEVSKYQEYTNELQETLPQKMFTASSGIKHTMTPIYPSSNTLVEMTLGMKKLKEEMEGVVKELAENNHILERFGSLTMDGGLRNVDCL
Consider B2, for which the binding result was “binds”.
